The values are deposited in ChEMBL (CHEMBL3988442, “University of Dundee, Small-Polar-MMV Screening Library” (2021)).

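Whole-cell assay for inhibitors of Mycobacterium tuberculosis growth, labelled Cornell in the record; the read-out is not stated. The concentration is filed as 10 mM, unlikely as a test dose, so the dose is not known. Higher means stronger inhibition (inferred from two other growth screens of the library). Size under these conditions: about 53,000 compounds, about 900 of them at 50% or above in at least one test.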

The filed quantity is “Percent Effect” (%). The record does not define 0% and 100%; most values in the screen are far below 50% and negative numbers occur (in some assays of this library far below -100). The compounds are a random part of those screened.

SMILES | effect
Cl.NCCNS(=O)(=O)Cc1ccc(Br)cc1 | 14.41
COC(=O)c1sccc1CN1CCN(C(=O)c2ccc(C)o2)CC1 | 18.46
Cc1ccc(N2CCCc3sc(C(=O)NCCC#N)nc32)nn1.O=C(O)C(F)(F)F | 12.02
CC(C)CNC(=O)CSC1CCc2ccccc2NC1=O (centres undefined) | 1.238
COCC(=O)N1CCCCC1c1nccc(C)n1 (centres undefined) | -9.179
Cc1nn(-c2ccc(C(=O)O)cc2)c2c1C(C(F)(F)F)SCC(=O)N2 (centres undefined) | 0.822
O=S1(=O)NC(C2CCN(Cc3ccccn3)CC2)Nc2ccccc21 (centres undefined) | 1.327
Cc1cnc(NC(=O)C(C)n2ccc(C(F)(F)F)n2)s1 (centres undefined) | 24.21
O=C(NCC1CC1)c1cc(Br)cnc1N1CCCCC1 | 10.02
CCc1cc(C(=O)N2CCCn3nc(CCC(=O)O)cc3C2)cs1 | 21.65
Cc1cn2nc(N3CCN(Cc4cc(C)on4)CC3)sc2n1 | 7.444
O=C(O)CCn1ccc2cc(Br)ccc21 | -19.79
O=C(NCCCn1ccnc1)N1CCCC1c1ccncc1 (centres undefined) | 12.86
[H][C@]12CCN(Cc3ccncc3)C(=O)[C@]1([H])CN(CC)C2 | 19.7
Cn1ccnc1CN1CCCN(C(=O)C2(C#N)CCCCC2)CC1 | 25.11
CCS(=O)(=O)N1CCOC2(CCCN(Cc3ccccn3)C2)C1.O=C(O)C(F)(F)F (centres undefined) | 19.06
CNc1cc(C2CN(C(=O)c3cscn3)CCO2)nc(C)n1 (centres undefined) | -12.78
CC(C)N1CC2(CCCN(c3ccccn3)C2)CCC1=O (centres undefined) | 8.106
COc1ccc(C2CCCCCN2Cc2cn(C)nc2C)cc1 (centres undefined) | 38.13
O=C(c1cnc2n1CCCC2)N1CCCC1 | 23.77
c1ccc(C2CCCN2Cc2nnnn2C2CC2)cc1 (centres undefined) | 7.29
C=C(C)CN(CC)S(=O)(=O)c1c(F)cc(NC(C)=O)cc1F | 33.45
CCCC(=O)N1CCOC2(COCCN(CC(=O)NC)C2)C1.O=C(O)C(F)(F)F (centres undefined) | 6.771
CC(C)c1ccc(CS(=O)(=O)Cc2nc(N)nc(N(C)C)n2)cc1 | 23.82
O=c1cc(CN(CCO)C2CC2)nc2ccc(Cl)cn12 | -1.417
CC(C)OCCC1CCCCN1S(C)(=O)=O (centres undefined) | 24.12
Cn1nc2c(cc1=O)CN(Cc1nc(N)c3ccccc3n1)CC2 | -16.29
COCc1cc(CN(C)C(=O)c2c[nH]nc2-c2cccc(F)c2)n[nH]1 | -15.05
CSCC[C@H](NC(=O)CCn1cc(C(C)=O)c2ccccc21)C(=O)O | 17.54
Cn1cnnc1SCC(=O)NC1CC(=O)N(CCc2cccc(Cl)c2)C1 (centres undefined) | 36.54
CC(C)OCCCNC(=O)N(C)C(C)c1ccc(-n2cncn2)cc1 (centres undefined) | 5.592
NC(=O)CCOc1nc(-c2ccccc2Cl)no1 | -25.26
O=C(c1ccnnc1)N1CCC2(CC1)CN(c1ccccn1)CCO2 | 9.215
CC(C)n1ccnc1CN1CCOC(CC2CCCCC2)C1 (centres undefined) | -2.674
O=S1(=O)COCCN1Cc1ccc(F)c(C(F)(F)F)c1 | 38.89
CCOc1ccccc1C(=O)N1CC(=O)N(C2CCC2)CC(O)C1 (centres undefined) | 12.12
[H][C@@]12CS(=O)(=O)C[C@]1([H])N(Cc1cnn(-c3ccccc3OC)c1)CCN2C | 16.67
O=C(C1CCCCC1)N1CCC(n2nc(-c3ccco3)ccc2=O)CC1 | 21.99
CN1C(=O)C2(NC(=O)c3ccccc3O2)c2ccccc21 (centres undefined) | 37.67
O=C(O)C(F)(F)F.O=C(O)C(F)(F)F.O=C1CC2(CCN(Cc3cccnc3)C2)CN1c1cccc(F)c1 (centres undefined) | 14.05
CC(Nc1nc(-c2ccncc2)nc2c1CCNC2)c1ccccc1 (centres undefined) | 16.91
O=c1[nH][nH]cc1-c1ccnc(NCCN2CCCCC2)n1 | -101
CC(C)n1cnnc1C1CCCN(S(=O)(=O)CCCF)C1 (centres undefined) | 0.128
COc1ccc(C2CC(=O)Nc3c2nc2n3CCCC2)cc1OC (centres undefined) | -11.25
Cc1cc(C)cc(N2CCN(Cc3cccnc3)CC2=O)c1 | -47.78
[H][C@@]12CCN(Cc3ccc(C)o3)C[C@@]1([H])[C@H](C(=O)NCC1CC1)CCO2 | 7.452
CCOCc1ncn2c1CN(S(=O)(=O)c1ccc(F)cc1)CC2 | -17.68

For reference, 4 entries once more:

{"smiles": "CC(Nc1nc(-c2ccncc2)nc2c1CCNC2)c1ccccc1", "stereo": "centres undefined", "effect": 16.91}
{"smiles": "O=S1(=O)COCCN1Cc1ccc(F)c(C(F)(F)F)c1", "effect": 38.89}
{"smiles": "Cn1nc2c(cc1=O)CN(Cc1nc(N)c3ccccc3n1)CC2", "effect": -16.29}
{"smiles": "Cn1cnnc1SCC(=O)NC1CC(=O)N(CCc2cccc(Cl)c2)C1", "stereo": "centres undefined", "effect": 36.54}